In paper PMC8647013:
These are yes or no findings as the source states them, for the method shown. In cells and extracts the contact can be indirect. Some entries that bind do so weakly or less than the wild type.

Amino acid sequences for entries named in this document (tags omitted). A change or cut given only in a name is not applied to a line headed by its entry.
UniProt Q9HC35: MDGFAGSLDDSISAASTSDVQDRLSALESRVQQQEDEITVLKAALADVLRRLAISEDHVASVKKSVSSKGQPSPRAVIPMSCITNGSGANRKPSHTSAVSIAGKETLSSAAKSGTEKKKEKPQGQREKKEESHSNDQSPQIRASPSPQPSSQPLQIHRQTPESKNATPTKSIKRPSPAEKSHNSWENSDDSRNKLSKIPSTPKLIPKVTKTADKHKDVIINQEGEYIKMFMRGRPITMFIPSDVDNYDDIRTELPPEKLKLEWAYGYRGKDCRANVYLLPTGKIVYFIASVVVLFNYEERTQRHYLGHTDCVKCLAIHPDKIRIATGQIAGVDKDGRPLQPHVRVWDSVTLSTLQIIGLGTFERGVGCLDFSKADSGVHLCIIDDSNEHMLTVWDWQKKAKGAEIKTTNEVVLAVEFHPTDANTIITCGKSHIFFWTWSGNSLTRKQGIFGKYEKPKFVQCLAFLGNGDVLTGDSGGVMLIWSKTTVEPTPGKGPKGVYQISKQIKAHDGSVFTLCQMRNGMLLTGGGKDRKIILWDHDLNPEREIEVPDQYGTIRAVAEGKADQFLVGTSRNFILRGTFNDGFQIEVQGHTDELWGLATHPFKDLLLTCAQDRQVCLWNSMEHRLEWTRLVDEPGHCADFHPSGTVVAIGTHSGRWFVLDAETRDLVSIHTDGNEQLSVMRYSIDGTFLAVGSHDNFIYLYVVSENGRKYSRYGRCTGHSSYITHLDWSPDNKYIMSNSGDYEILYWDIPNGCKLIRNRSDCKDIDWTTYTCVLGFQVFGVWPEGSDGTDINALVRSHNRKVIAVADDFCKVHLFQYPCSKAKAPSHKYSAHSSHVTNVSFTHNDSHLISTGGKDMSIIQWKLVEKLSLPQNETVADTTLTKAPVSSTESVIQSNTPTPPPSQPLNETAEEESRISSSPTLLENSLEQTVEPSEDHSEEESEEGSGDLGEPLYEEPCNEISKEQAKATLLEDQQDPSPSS
UniProt Q9UM73: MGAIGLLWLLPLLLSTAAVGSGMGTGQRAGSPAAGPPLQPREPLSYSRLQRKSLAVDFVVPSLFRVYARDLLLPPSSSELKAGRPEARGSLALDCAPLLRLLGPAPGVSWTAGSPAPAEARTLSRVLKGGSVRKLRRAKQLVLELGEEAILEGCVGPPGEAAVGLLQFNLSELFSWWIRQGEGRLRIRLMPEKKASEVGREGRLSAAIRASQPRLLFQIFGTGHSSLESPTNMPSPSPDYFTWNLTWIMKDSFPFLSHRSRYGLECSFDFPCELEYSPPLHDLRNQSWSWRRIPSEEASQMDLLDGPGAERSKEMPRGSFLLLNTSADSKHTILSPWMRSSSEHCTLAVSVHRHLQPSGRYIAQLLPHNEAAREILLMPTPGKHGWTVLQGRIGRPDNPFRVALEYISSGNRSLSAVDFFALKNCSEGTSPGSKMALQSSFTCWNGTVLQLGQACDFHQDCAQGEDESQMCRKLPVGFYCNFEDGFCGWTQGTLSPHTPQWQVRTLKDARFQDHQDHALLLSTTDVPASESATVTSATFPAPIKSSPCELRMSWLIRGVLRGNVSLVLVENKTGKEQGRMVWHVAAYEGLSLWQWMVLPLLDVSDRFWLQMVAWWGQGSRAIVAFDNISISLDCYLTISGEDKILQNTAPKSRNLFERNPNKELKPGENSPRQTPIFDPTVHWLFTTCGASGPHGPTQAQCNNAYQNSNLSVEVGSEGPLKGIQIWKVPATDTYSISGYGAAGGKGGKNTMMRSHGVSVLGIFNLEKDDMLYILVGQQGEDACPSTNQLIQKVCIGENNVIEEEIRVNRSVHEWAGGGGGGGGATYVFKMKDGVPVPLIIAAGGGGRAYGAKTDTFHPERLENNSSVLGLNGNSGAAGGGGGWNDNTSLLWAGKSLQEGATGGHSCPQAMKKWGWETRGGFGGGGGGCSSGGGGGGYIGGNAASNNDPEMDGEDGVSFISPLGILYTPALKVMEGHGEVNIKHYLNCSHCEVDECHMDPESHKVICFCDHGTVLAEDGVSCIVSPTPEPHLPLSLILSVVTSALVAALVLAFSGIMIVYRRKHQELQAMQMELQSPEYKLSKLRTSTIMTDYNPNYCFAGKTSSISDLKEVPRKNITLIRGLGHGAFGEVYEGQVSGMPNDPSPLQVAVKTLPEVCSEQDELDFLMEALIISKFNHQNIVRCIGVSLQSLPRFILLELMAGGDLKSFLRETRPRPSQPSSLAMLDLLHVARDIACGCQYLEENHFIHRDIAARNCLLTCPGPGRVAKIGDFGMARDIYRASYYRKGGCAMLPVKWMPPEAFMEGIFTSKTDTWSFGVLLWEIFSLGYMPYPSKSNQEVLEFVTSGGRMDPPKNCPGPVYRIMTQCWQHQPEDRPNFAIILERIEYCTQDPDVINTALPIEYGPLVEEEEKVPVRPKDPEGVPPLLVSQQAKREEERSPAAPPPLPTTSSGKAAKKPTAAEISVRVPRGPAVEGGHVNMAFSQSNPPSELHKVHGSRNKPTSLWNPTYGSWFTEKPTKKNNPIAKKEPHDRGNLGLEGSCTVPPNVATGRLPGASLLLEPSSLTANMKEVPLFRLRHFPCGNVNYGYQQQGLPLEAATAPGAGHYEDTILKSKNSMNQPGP
UniProt P62993: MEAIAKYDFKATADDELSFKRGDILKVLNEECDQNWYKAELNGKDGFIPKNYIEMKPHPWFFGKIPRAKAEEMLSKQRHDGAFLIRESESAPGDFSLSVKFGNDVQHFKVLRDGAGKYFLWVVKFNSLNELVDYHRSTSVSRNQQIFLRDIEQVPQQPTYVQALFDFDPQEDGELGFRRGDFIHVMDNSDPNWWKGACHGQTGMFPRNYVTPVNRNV

Legend:
[1] = target: T1, EML4‐ALK V3 (doxycycline-induced, Beas2B V3 cells) (human) (UniProt Q9HC35+Q9UM73); experiment: proximity ligation; Duolink in situ PLA with GRB2 and ALK antibodies in fixed, permeabilised H2228 and Beas2B V3 cells; DMSO control cells
[2] = target: T1, EML4‐ALK V3 (doxycycline-induced, Beas2B V3 cells) (human); experiment: condition: only cells treated with ALK inhibitors (ceritinib 500 nM, alectinib 100 nM or lorlatinib 100 nM) for 4 h; proximity ligation; Duolink in situ PLA with GRB2 and ALK antibodies in fixed, permeabilised H2228 and Beas2B V3 cells; cells treated with ALK inhibitors (ceritinib, alectinib or lorlatinib) for 4 h before fixation

- binding [1]: binds
- binding [2]: no binding
Substance: GRB2 (from UniProt P62993 1-217)
